Source: patent US20030224470A1, “Method of diagnosing statin myopathy” (priority 2002, published 2003)

Experiment: Urine organic acid analysis for 3-methylglutaconic acid (3MGA)
Format: in vivo, patients
Conditions: Patient 4, Atorvastatin 10 mg/d, normal range 0-9 mmol/mol creatinine
From the text: The invention is not limited by the method of detection of 3MGA in the urine. Presently, 3MGA is typically detected using gas chromatography mass spectrometry (GCMS) or tandem mass spectrometry techniques. The development of tests for the detection of organic molecules in bodily fluids is well within the ability of those skilled in the art. Any quantitative or qualitative method able to detect 3MGA with the sensitivity required can be used to practice the method of the invention.
As some variance may exist between testing laboratories, exact values indicative of myopathy may vary. All of the values presented herein were obtained at the University of California San Diego clinical testing laboratory. In that laboratory, two standard deviations from the average background level is 9 millimoles/mole creatine. Based on values obtained in that laboratory, values indicative of statin related myopathy are between about 9 and 200 millimoles/mole creatine, typically between about 9 to 100 millimoles/mole creatine, most typically between about 9 and 50 millimoles/mole creatine. […]
Quantitative testing methods. […] Typically 3MGA is detected during a complete urine organic acid analysis which is performed using tandem mass spectrophotometry or gas chromatography mass spectrophotometry. […]

3-Methylglutaconic acid levels On Statin: 16 mmol/mol
Structure (SMILES): CC(C)c1c(C(=O)Nc2ccccc2)c(-c2ccccc2)c(-c2ccc(F)cc2)n1CC[C@@H](O)C[C@@H](O)CC(=O)O [Atorvastatin]
